In patent publication US20080280937A1 (priority 2005, published 2008):
HELM strings list residues between dots; [ac] is acetyl, [am] amide, other brackets name non-standard units.

Experiment: general procedure: Fmoc solid-phase peptide synthesis; Fmoc-AA-Wang resin (Wang is a 2-chlorotrityl-Resin); PyBOP, DIPEA
Details: conjugation step

Substance	conjugation yield [% yield]	final HPLC purity (HPLC) [% pure]
PEPTIDE1{[Pte].[gGlu].D.R.D.D.C}|CHEM1{[DAVLBH_CO2EtS]}$PEPTIDE1,CHEM1,7:R3-1:R1$$$V2.0	70	–
PEPTIDE1{[Pte].[D-gGlu].[dD].[dR].[dD].[Asp_open].[dC]}|CHEM1{[DAVLBH_CO2EtS]}$PEPTIDE1,CHEM1,7:R3-1:R1$$$V2.0	–	98
